This is an account of results in the supplement of paper PMC10032668.

By UniProt entry, the sequences of proteins in these tests, tags left out.
CDC27, P30260, UniProt P30260, whole entry: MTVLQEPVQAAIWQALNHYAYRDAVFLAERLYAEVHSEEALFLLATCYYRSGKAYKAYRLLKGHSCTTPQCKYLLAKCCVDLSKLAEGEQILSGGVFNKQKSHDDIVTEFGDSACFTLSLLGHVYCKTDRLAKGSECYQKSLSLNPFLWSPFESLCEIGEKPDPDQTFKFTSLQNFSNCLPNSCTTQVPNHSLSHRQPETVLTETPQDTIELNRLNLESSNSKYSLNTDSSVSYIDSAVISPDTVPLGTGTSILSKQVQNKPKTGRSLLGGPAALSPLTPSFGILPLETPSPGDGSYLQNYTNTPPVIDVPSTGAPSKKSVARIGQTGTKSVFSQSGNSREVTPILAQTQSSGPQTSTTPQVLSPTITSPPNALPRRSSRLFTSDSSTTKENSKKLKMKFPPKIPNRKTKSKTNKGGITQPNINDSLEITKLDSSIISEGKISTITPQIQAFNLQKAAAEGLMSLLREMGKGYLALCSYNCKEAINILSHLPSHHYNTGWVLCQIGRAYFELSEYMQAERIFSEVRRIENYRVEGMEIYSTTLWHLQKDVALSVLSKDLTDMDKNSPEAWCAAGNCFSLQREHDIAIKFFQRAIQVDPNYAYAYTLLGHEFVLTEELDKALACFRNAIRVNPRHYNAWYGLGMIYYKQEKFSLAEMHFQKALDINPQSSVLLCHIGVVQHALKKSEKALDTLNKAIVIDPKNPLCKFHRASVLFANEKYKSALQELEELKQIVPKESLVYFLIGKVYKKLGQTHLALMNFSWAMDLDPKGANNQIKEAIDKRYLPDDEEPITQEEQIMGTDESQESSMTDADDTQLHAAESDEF
GPN1, Q9HCN4, UniProt Q9HCN4, whole entry: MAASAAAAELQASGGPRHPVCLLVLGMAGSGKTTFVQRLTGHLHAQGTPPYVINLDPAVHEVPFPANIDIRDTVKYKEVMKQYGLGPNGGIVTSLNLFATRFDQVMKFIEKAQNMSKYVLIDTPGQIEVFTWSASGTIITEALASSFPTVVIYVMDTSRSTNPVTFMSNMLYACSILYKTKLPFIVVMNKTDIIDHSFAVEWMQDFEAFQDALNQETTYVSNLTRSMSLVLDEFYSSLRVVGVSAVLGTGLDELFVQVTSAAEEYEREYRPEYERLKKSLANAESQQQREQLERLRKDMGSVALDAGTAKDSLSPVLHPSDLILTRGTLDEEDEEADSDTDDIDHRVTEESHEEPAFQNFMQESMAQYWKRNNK
PDIA3, P30101, UniProt P30101, whole entry: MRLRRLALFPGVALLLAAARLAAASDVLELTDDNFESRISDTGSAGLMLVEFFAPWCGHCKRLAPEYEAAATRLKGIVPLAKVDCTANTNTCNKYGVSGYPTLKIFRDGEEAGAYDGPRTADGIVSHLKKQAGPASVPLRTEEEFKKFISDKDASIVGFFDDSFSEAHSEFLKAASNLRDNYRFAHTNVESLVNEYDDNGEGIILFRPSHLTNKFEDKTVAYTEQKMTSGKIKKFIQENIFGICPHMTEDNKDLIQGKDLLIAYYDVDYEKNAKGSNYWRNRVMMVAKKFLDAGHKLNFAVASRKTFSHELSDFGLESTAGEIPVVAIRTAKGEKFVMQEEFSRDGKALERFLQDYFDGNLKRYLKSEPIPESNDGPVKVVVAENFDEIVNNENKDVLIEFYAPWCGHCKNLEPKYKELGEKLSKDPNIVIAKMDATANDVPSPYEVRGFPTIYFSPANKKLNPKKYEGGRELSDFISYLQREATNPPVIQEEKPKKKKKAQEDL
SNRPB2, P08579, UniProt P08579, whole entry: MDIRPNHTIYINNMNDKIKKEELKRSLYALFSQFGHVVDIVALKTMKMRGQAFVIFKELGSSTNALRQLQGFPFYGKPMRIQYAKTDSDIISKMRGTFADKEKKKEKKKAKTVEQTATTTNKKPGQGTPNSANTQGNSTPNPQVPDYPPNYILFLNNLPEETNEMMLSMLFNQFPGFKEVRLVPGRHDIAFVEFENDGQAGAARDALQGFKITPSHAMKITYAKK
TF, P02787, UniProt P02787, whole entry: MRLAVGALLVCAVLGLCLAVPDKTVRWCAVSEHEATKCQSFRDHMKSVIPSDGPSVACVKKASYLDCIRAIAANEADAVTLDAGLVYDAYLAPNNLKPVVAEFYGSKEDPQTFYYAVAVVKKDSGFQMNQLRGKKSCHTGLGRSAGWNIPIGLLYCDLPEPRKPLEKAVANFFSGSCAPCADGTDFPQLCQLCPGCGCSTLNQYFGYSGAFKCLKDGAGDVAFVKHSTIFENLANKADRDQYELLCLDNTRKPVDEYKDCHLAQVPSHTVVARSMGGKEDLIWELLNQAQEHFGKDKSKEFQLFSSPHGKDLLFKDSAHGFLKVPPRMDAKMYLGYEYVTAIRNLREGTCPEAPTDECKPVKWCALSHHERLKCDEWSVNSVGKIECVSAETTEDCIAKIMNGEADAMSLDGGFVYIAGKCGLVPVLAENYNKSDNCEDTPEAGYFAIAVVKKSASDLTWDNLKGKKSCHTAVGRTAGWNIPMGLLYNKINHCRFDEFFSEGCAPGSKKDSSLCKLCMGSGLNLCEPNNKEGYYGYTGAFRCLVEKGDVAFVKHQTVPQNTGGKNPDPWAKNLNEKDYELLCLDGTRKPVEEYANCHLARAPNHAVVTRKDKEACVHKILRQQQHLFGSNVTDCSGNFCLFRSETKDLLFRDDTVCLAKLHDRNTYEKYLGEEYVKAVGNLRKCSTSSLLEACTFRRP

This is one part of the list. The list holds hits alone, and they repeat only in part.

Holding throughout (experiment): PRISMA enrichment of interactor (LFQ) in peptide spot vs all other peptide spots (log2 fold change); higher = stronger / more specific binding of the interactor to the peptide
One assay addresses VARS, P26640. How it is done:
(§1)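 PRISMA: 15-aa overlapping tiles (offset 8 aa) of 60 microproteins, plus SOS1/GLUT1 control peptides, were spot-synthesized on cellulose membranes in triplicate. Membranes were incubated with benzonase-treated HEK293T lysate, and bound proteins were identified by LC-MS/MS with LFQ. Enrichment is the log2 fold change of each protein in one spot versus all other spots. Only interactors passing the significance cutoff are listed.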

A further assay addresses XPO7, Q9UIA9. On the procedure: as §1
Another assay addresses ACACA, Q13085. How it is done: as §1
A further assay deals with ACAT2, Q9BWD1. On the procedure:
as §1

Another assay addresses ADAR, P55265. On the procedure: as §1
For a further assay, the target named is AK4, P27144. On the procedure: as §1
A further assay concerns the target C12orf45, Q8N5I9. How it is done: as §1
Another assay deals with CDC27, P30260. On the procedure: as §1
The target of the next assay is FAM120A, Q9NZB2. How it is done: as §1
The next assay deals with GATA6, Q92908. How it is done:
as §1

A further assay addresses GPAT4, Q86UL3. On the procedure:
as §1

The next assay deals with GPN1, Q9HCN4. How it is done:
as §1

For another assay, the target named is MRPL47, Q9HD33. How it is done:
as §1

For the next assay, the target named is MRPS10, P82664. How it is done: as §1
In another assay the target is NAA15, Q9BXJ9. On the procedure: as §1
In another assay the target is NEPRO, Q6NW34. How it is done: as §1
Another assay has as its target NKRF, O15226. How it is done:
as §1

A further assay has as its target OXA1L, Q15070. On the procedure:
as §1

The target in a further assay is PDIA3, P30101. How it is done: as §1
The next assay addresses PEX3, P56589. On the procedure:
as §1

Another assay addresses POLR2C, P19387. How it is done:
as §1

A further assay deals with PSMA5, P28066. On the procedure:
as §1

The target in the next assay is RPF2, Q9H7B2. On the procedure:
as §1

Another assay addresses SNRPB2, P08579. How it is done:
as §1

A further assay addresses TF, P02787. How it is done:
as §1

The target of another assay is THYN1, Q9P016. On the procedure: as §1
The next assay concerns the target UBAP2L, Q14157. How it is done: as §1
A further assay concerns the target UQCRFS1, P47985. On the procedure:
as §1

The next assay concerns the target ACAD11, Q709F0. How it is done:
as §1

The next assay concerns the target CFAP20, Q9Y6A4. How it is done:
as §1

For a further assay, the target named is CLTA, P09496. On the procedure: as §1
Another assay has as its target CLTB, P09497. How it is done:
as §1

The target in a further assay is CLTC, Q00610. On the procedure: as §1
In a further assay the target is DECR1, Q16698. How it is done: as §1
For another assay, the target named is ECHS1, P30084. On the procedure:
as §1

A further assay deals with GABARAPL2, P60520. On the procedure:
as §1

The next assay has as its target HIST2H2BE, Q16778. On the procedure: as §1
The next assay deals with MAP1LC3B, Q9GZQ8. How it is done: as §1
The next assay deals with PYCR2, Q96C36. On the procedure: as §1
For the next assay, the target named is SEC16A, O15027. How it is done:
as §1

The target in another assay is ZNF724, A8MTY0. How it is done:
as §1

For PRHLPVDFLAERMLA [PVT1], the “PRISMA enrichment of interactor (log2)” value was 4.48 with VARS, P26640 and 8.85 with XPO7, Q9UIA9.
For the molecule LLAEDSPLSRPPHRR [IFRD1], the “PRISMA enrichment of interactor (log2)” value with ACACA, Q13085 worked out at 5.33; in the assay with ACAT2, Q9BWD1, 4.64; in the assay with ADAR, P55265 it was 4.56; in the assay with AK4, P27144, 4.94; with C12orf45, Q8N5I9 it was 4.07; with CDC27, P30260, 6.28. Besides, the “PRISMA enrichment of interactor (log2)” value in the assay with FAM120A, Q9NZB2 worked out at 4.98; in the assay with GATA6, Q92908, 6.09; with GPAT4, Q86UL3, 6.13; in the assay with GPN1, Q9HCN4 it was 4.54; with MRPL47, Q9HD33, 5.57; with MRPS10, P82664 it was 6.58. Moreover, the “PRISMA enrichment of interactor (log2)” value with NAA15, Q9BXJ9 worked out at 5.5; with NEPRO, Q6NW34, 6.91; with NKRF, O15226 it was 6.07; in the assay with OXA1L, Q15070, 6.11; with PDIA3, P30101, 5.16; with PEX3, P56589, 5.8. Also, the “PRISMA enrichment of interactor (log2)” value with POLR2C, P19387 is 5.64; with PSMA5, P28066, 5.61; with RPF2, Q9H7B2, 5.1; in the assay with SNRPB2, P08579 it was 5.81; with TF, P02787 it was 5.38; in the assay with THYN1, Q9P016, 4.49. The “PRISMA enrichment of interactor (log2)” value with UBAP2L, Q14157 is 5.12; with UQCRFS1, P47985 it was 9.11.
As for TPEELFHLLGADSQ [GLUT1_MUT_3], the “PRISMA enrichment of interactor (log2)” value was 3.97 in the assay with ACAD11, Q709F0; 4.25 in the assay with CFAP20, Q9Y6A4; 5.78 in the assay with CLTA, P09496; 4.89 with CLTB, P09497; 3.43 with CLTC, Q00610; 5.09 with DECR1, Q16698. Further, the “PRISMA enrichment of interactor (log2)” value with ECHS1, P30084 worked out at 5.68; with GABARAPL2, P60520, 5.21; with HIST2H2BE, Q16778 it was 4.48; in the assay with MAP1LC3B, Q9GZQ8, 5.18; in the assay with PYCR2, Q96C36, 4.75; with SEC16A, O15027, 4.15. In addition, the “PRISMA enrichment of interactor (log2)” value with ZNF724, A8MTY0 was found to be 5.39.
